The record followed here is patent US20060281109, “Polymerases” (published 2006).

Series [1] addresses T1, 9°N-7 YAV C223S exo- R713A (Thermococcus sp. 9°N-7) (UniProt Q56366).
T1 sequence: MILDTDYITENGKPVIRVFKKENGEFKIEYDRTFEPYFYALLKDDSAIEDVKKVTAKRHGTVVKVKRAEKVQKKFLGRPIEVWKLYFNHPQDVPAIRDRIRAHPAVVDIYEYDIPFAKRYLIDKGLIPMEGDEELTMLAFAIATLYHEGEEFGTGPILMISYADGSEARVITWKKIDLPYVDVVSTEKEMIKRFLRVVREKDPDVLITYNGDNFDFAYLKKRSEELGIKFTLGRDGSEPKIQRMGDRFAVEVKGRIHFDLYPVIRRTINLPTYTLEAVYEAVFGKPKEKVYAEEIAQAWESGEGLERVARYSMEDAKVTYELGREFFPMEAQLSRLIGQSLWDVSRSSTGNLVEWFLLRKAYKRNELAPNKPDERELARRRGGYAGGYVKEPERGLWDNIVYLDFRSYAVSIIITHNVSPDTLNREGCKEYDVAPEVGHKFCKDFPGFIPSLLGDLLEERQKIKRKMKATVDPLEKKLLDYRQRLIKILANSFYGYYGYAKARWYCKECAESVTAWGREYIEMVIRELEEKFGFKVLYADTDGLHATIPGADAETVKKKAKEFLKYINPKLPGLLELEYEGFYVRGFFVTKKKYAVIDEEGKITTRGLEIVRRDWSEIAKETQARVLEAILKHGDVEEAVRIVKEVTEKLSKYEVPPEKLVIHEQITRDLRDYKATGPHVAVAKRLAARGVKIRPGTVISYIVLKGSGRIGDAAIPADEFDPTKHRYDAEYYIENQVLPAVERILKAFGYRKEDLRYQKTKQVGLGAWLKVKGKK
Description: binding assay. To be noted: 5'-amino, surface coupled; washing assay; more effectively removed at NaCl <200 mM; purified recombinant protein; folded or branched DNA.

Series [2] deals with T2, 9°N-7 YAV C223S exo- R743A (Thermococcus sp. 9°N-7) (UniProt Q56366).
T2 sequence: T1 sequence with K705A, A713R
Nature of the series: binding assay. To be noted: 5'-amino, surface coupled; washing assay; more effectively removed at NaCl <200 mM; purified recombinant protein; folded or branched DNA.

Where a chain is given by its changes, count along the chain named. A weaker result is weaker than the reference pair of the same experiment. For some assays here: Where a protein sequence is shown, tags need not be part of it.

On to “CGATCACGATCACGATCACGATCACGATCACGATCACGCTGATGTGCATGCTGTTGTTTTTTTACAACAGCATGCACATCAGCG [A-template hairpin oligo 815]”, for which the binding result in series [1] and in series [2] was “binds more weakly” throughout.
